# Reference: PubChem BioAssay AID720534 (National Center for Advancing Translational Sciences (NCATS), 2013)
# The list shows a part of the results, in another mix than the full data. Records with an inconclusive call do not appear. Calls of active or inactive are those of the source. Calls come from the whole dose curve; as a rule, active = well fitted inhibition curve with a large enough effect; inconclusive = small, poorly fitted or top-dose-only effect; inactive = no such curve, though single readings can be large or run the other way.
# Assay: qHTS for Inhibitors of TGF-b: Confirmation of Cherry Picks; note: nearly all actives have a fitted effect of over 65% in size
# Settings: HepG2 CAGA-GFP TGF-b reporter, GFP fluorescence, 18 h; cells stimulated with TGF-beta, 500 pg/mL
# Source text: TGF-b is a main component in the TGF-b signaling pathway which plays diverse roles in cellular and development pathways. TGF-b is mediated through transcription factors called "Smads". Although the Smad-dependent pathway is the primary canonical TGF-b signaling mode, TGF-b1 can also activate alternative signaling pathways, including those involving MAPK (ERK, JNK and p38). This interaction may mediate or enhance Smad-dependent responses, or can exert Smad-independent effects. The complexity of this signaling cascade allows the TGF-b superfamily to perform unique, overlapping or redundant functions. […] We aim to identify Smad3-small molecule antagonists using a quantitative high throughput screening (qHTS) approach. […]
# Suspensions of trypsinized HEPG2 CAGA-GFP cells were dispensed into white, tissue culture-treated, solid 1536-well plates at 5uL/well (1000 cells/well final concentration) in DMEM medium supplemented with 1% FBS. […] The plates were measured on an Acumen eX3 Explorer plate reader for GFP fluorescence (ex488/em500-530). GFP values were calculated by determining the mean GFP fluorescence of individual cells, and compiling these values for each well to determine a total well GFP signal. The %Activity was determined from the corrected fluorescence values. […] Concentration-response curves were fitted to the signals arising from the resulting fluorescence. […]
# Potency is the fitted concentration of half-maximal effect.
row,SMILES,Potency
1,COc1c(O)cc2c(c1OC)-c1ccc(SC)c(=O)cc1C(NC(C)=O)CC2 (stereo unspecified),active: 46.1 nM
